Reference: article PMC7610266

Target: p53 (UniProt P04637)
Assay: EMSA supershift
Conditions: anti-p53, SK-HEP-1 nuclear extract; EMSA: LightShift kit, room temperature 30 min; protein in an extract; label: biotin

Sequence: GAGCTGGAGCGCCCAGGGCATGTCCGCCGA (double strand) [lnc-Ip53 p53RE probe]
- binding result: binds

The exact form of at least one protein or probe is not confirmed. Where cells or extracts were used, other partners may take part.
